# Laboratory results reported in article PMC12040169 (PLOS Biology, 2025).
# The other results are listed elsewhere or left out.
# Test system: T1, CTL2-GFP (C. trachomatis L2/434/Bu, GFP-expressing)
# T1 construct: L2/434/Bu, GFP-expressing
# Design: species or system HeLa; Intracellular C. trachomatis growth in HeLa cells, bulk GFP fluorescence relative to DMSO
# Settings: bulk GFP, single well; 28.5 h, 10 µM; inhibitor
row,Structure (SMILES),% of control remaining [%]
1,CCOC(=O)N1CCN(Cc2ccc(OCc3nccn3C)cc2)CC1 [CBK305413],84.7756
2,CC1CCN(C(=O)c2cccc(Cn3cc(Br)cn3)c2)CC1 [CBK058482],131.866
3,O=C(NCCn1nc2c(cc1=O)CCCCC2)c1cccs1 [CBK283277],111.232
4,CCN1C(=O)C2(CC(=O)N(CCCN(C)C(=O)c3ccco3)C2=O)c2cc(C)ccc21 (stereo not drawn) [CBK075141],87.9514
5,CC(O)C(=O)NS(=O)(=O)c1ccccc1 (stereo not drawn) [CBK038300],118.554
6,Cc1ccc(S(=O)(=O)CC(=O)N2CCCC3(CCN(C(=O)c4cc(F)c(F)cc4F)C3)C2)cc1 (stereo not drawn) [CBK131558],100.089
7,CC(C)N(C(=O)Cn1c(C(F)F)cc2cccnc21)C(C)C [CBK285009],136.622
8,Cc1cnoc1-c1cc(Br)cc(Br)c1O [CBK012420],116.938
9,CCN(CC(=O)NCc1ccc(F)cc1)S(=O)(=O)c1ccccc1C#N [CBK305842],99.3953
10,CC(=O)Nc1cccc(NC(=O)CCCC(=O)O)c1 [CBK261598],100
11,COc1ccc(/C=N/NC(=O)c2ccc(CN3CCOCC3)cc2)cc1[N+](=O)[O-] [CBK262708],141.071
12,Cc1nnc(SCCn2c(N3CC(C)CC(C)C3)nc3c2c(=O)n(C)c(=O)n3C)s1 (stereo not drawn) [CBK269419],97.4039
13,Cc1ccc(N(Cc2ccc(C(=O)N(C)Cc3ccccc3)cc2)S(C)(=O)=O)cc1C [CBK263795],117.749
14,N#CC(N)c1c(Cl)cccc1Cl (stereo not drawn) [CBK008288C],138.757
15,Nc1ncnc(NCCCn2ccnc2)c1[N+](=O)[O-] [CBK267312],137.784
16,O=C1CC(c2ccccc2)c2c(n3ccsc3nc2=O)N1 (stereo not drawn) [CBK287923],136.954
17,Cc1nn(C)c(C)c1NC(=O)COc1ccc2c(c1)CCCC2=O [CBK304963],82.5877
18,O=S(=O)(CCN1CCC2(CC1)CN(CCO)c1ccccc12)c1ccccc1 [CBK126758],65.0069
19,COc1ccc2[nH]cc(CCNC(=O)C3CC(=O)c4ccccc43)c2c1 (stereo not drawn) [CBK116221],110.16
20,Cc1cc(C)cc(-c2ccc(CC3(C(=O)NC(C)CO)CCOCC3)cc2)c1 (stereo not drawn) [CBK286523],92.0454
21,COc1ccc(-n2c(C)c([N+](=O)[O-])c3ccc(O)c(CNCCCO)c32)cc1 [CBK263504C],100

row,Structure (SMILES),% of control remaining [%]
1,CC(C)(c1ccccc1)c1ccc(OCCNCCN)cc1 [CBK265102],113.166
2,O=C(c1cccnc1)N1CCC(c2cc3ccccc3cn2)CC1 [CBK284891],89.9583
3,C[C@@H](Cn1nnc2ccccc21)NC(=O)Cc1cccs1 [CBK282312],123.255
4,CC(=O)c1ccc(-c2nc(NS(C)(=O)=O)cc3cccnc23)cc1 [CBK061874],87.1592
5,COc1cc(C)c(Nc2cc(-c3ccc4c(c3)OCO4)ncn2)cc1OC [CBK037711],163.651
6,O=C(NCc1ccco1)c1cc(-c2ccc(Cl)cc2)cnc1N1CCOCC1 [CBK076352],121.28
7,O=C(NCCn1nc(-c2ccco2)ccc1=O)c1ccccc1F [CBK283742],145.491
8,CC(C)(C)c1cn2c3ccccc3nc2n1CCO [CBK273412],128.912
9,COc1ccc(C2c3cc(OC)c(OC)cc3CC(=O)N2c2ccc(C(=O)O)cc2)cc1 (stereo not drawn) [CBK296074],144.572
10,OCC(CNc1ncnc2nc[nH]c12)Cc1ccccn1 (stereo not drawn) [CBK304412],162.164
11,O=S(=O)(CCc1ccccn1)N1CCC(Cc2ccccc2)CC1 [CBK043632],87.8066
12,COc1ccc(CN2CCN(Cc3cccnc3)CC2)cc1OC [CBK074409G],126.573
13,Cc1cc(NC(=O)N(Cc2cnn(C)c2)CC(C)C)ccc1F [CBK304206],50.9856
14,CCOC(=O)c1c(NC(=O)CSc2ncnc3sc(C)c(C)c23)sc(C)c1C [CBK266440],102.94
15,NCc1ccc(OC2CCNCC2)cc1 [CBK003920T],117.632
16,CCn1c2ccccc2c2cc(C(N)=O)c(N)nc21 [CBK019787],144.096
17,CCNC(=O)c1c(O)c2ccccc2[nH]c1=O [CBK262450],143.192
18,Cc1ccc(-c2oncc2C(=O)N2CCC(n3c(=O)[nH]c4ccccc43)CC2)cc1 [CBK149180],77.514
19,Cc1ccc(S(=O)(=O)c2cncc(N3CCNCC3)n2)cc1 [CBK051166C],91.4429
20,CC(=O)N1CCCc2cc(C(O)CN3CCC(C)CC3)ccc21 (stereo not drawn) [CBK282588],119.273
21,COc1ccc(-c2ccc3c(c2)C(=O)N2CC[C@H](N)C[C@H]2C(=O)N3)c(OC)c1 [CBK289560],100.298

# Structures from the list above that contain two or more sulfur atoms (two):
row,Structure (SMILES),% of control remaining [%]
12,Cc1nnc(SCCn2c(N3CC(C)CC(C)C3)nc3c2c(=O)n(C)c(=O)n3C)s1 (stereo not drawn) [CBK269419],97.4039
14,CCOC(=O)c1c(NC(=O)CSc2ncnc3sc(C)c(C)c23)sc(C)c1C [CBK266440],102.94

# (more compounds)

row,Structure (SMILES),% of control remaining [%]
1,Cc1ccc(-c2nccnc2OCCC(C)C)c(C)c1 [CBK106988],124.086
2,Cc1nc(C)c(C(=O)N2CCC(c3cc4cccnc4[nH]3)CC2)s1 [CBK284998],97.402
3,N#Cc1ccc(Cn2nc(NC(=O)c3ccco3)c3ccccc32)cc1 [CBK048260],100
4,COc1cc2c(cc1OC)CN(C(=O)CSc1nc3c(c(-c4cccs4)c1C#N)CN(C)CC3)CC2 [CBK267462],116.577
5,CCNS(=O)(=O)c1ccc(NS(=O)(=O)Cc2ccccc2)cc1 [CBK268257],127.736
6,C=CCn1cc(CN(CCN(C)C)Cc2ccc(C)o2)c(C)n1 [CBK282844],107.819
7,FC(F)(F)C1=NC(C(F)(F)F)=NP(N2CCOCC2)(N2CCOCC2)=N1 [CBK261042],103.438
8,CCCCN(C)S(=O)(=O)NCCc1cn2ccccc2n1 [CBK304543],98.9915
9,C=CCNCc1cc2c(C)nn(-c3ccc(F)cc3)c2[nH]c1=O [CBK283117],77.5513
10,CN1CCN(c2ccccc2NC(=O)CSc2ccc(Cl)cc2)CC1 [CBK267941],117.003
11,CCOCCc1nsc(NS(=O)(=O)c2cccc(Cl)c2C)n1 [CBK034245],100
12,O=C(O)c1ccccc1C(=O)OCCN1CCOCC1 [CBK261462],125.523
13,O=C(Cc1ccc(Cl)c(Cl)c1)NCCc1c[nH]c2ccc(Cl)cc12 [CBK159749],109.444
14,C=CCNc1nc(NCCN2CCOCC2)nc(N2CCOCC2)n1 [CBK263074],101.159
15,O=C(O)CNS(=O)(=O)c1c(F)c(F)c(F)c(F)c1F [CBK269986],140.403
16,COc1ccc2[nH]cc([C@@H]3CCC[C@H](NC(=O)C4CCCO4)C3)c2c1 (stereo partly drawn) [CBK284699],93.8602
17,O=C(c1cncnc1)N1CC[C@H](c2nc3cc(F)ccc3[nH]2)C1 [CBK289376],124.599
18,Cc1ccc(S(=O)(=O)N2CCSC2C(=O)O)cc1 (stereo not drawn) [CBK286964],86.32
19,O=C(O)c1ccccc1C(=O)N1CCN(Cc2ccc3c(c2)OCO3)CC1 [CBK074751],87.697
20,COc1ccccc1-c1cn2ccnc2c(Nc2cccc(Cl)c2)n1 [CBK066399],185.493
21,Cc1ccc(C2(C(=O)N3CCCC3)CCN(S(=O)(=O)c3ccc(C)cc3)CC2)cc1 [CBK008752],116.906

# Copied from the list.
# Value of O=C(c1cccnc1)N1CCC(c2cc3ccccc3cn2)CC1 [CBK284891] under % of control remaining [%]: 89.9583
# Value of N#CC(N)c1c(Cl)cccc1Cl (stereo not drawn) [CBK008288C] under % of control remaining [%]: 138.757

# Going on with the list:

row,Structure (SMILES),% of control remaining [%]
1,Cc1csc(C(Cc2ccsc2)NC(=O)Cc2ccccn2)n1 (stereo not drawn) [CBK285097],130.543
2,CCn1c(C)nc2cc(NC(=O)c3ccc(CN(C)C)cc3)ccc21 [CBK281880],169.262
3,O=c1sn(C2CCCCC2)c(=O)n1Cc1ccc(F)cc1 [CBK113604],108.84
4,O=C(O)c1nccnc1-c1ccc(COc2cccc3ccccc23)cc1 [CBK050810],105.76
5,COc1cc(NC(=O)CC2(CC(=O)O)CCCCC2)ccc1N1CCCC1=O [CBK296637],103.222
6,Cc1cc(C2CCCN2C(=O)c2ccc(C(F)(F)F)nc2)on1 (stereo not drawn) [CBK305761],92.5204
7,O=C(Nc1ccccn1)c1cnn(-c2ccc(Cl)cc2)c1C(F)(F)F [CBK107442],83.4468
8,COc1cc2c(cc1NC(=O)CN(C)S(=O)(=O)c1ccc(Cl)cc1)oc1ccccc12 [CBK267404],135.691
9,Cn1c(N2CC[C@H](O)C2)nc2cc(C(=O)NCCC3CCCC3)ccc21 [CBK307447],152.538
10,Cc1ccc2ncnc(NCCCCCC(=O)O)c2c1 [CBK287256],123.772
11,CC(=O)Nc1ccc(S(=O)(=O)N(C)c2ccccn2)cc1Cl [CBK044789],128.598
12,O=c1oc(-c2cccnc2)nn1Cc1ccccc1F [CBK283774],143.018
13,Cc1ccccc1OCc1nnc(SCC(N)=O)n1-c1ccccc1 [CBK268808],128.279
14,O=C(c1csnn1)N1CCc2ccccc21 [CBK200408],118.383
15,Cc1ccc(NC(=O)c2cc(C)[nH]n2)c(C)n1 [CBK200387],115.072
16,O=C(Nc1nc2ccccc2s1)c1cnccn1 [CBK058664],126.443
17,CC(C)[C@@H](CO)Nc1nc(-c2ccc(S(C)(=O)=O)cc2)cnc1N [CBK063750],161.238
18,CC(C)(C)C1CCc2c(sc(NC(=S)NC(=O)COc3ccccc3)c2C(N)=O)C1 (stereo not drawn) [CBK268634],155.367
